# Percent effect of library compounds

Mtb cholesterol medium: 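Phenotypic screen: M. tuberculosis growth, cholesterol and DPPC medium, 4 days; the read-out is not stated. Concentration: 50 µM. The record gives no direction; compounds that gave an IC50 in retests scored well above the rest, so higher reads as more growth inhibition. Size under these conditions: about 69,000 compounds, about 370 of them at 50% or above in at least one test.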
Mtb glucose medium: 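Whole-cell growth test on Mycobacterium tuberculosis, read after 3 days in glucose-containing 7H9 medium; the read-out is not stated. Tested at 50 µM. Higher reads as more growth inhibition (inferred: compounds with an IC50 in retests scored well above the rest). Size under these conditions: about 69,000 compounds, about 760 of them at 50% or above in at least one test.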

Values are the deposited “Percent Effect”, in %. The record does not define 0% and 100%; most values in the screen are far below 50% and negative numbers occur (in some assays of this library far below -100). Compounds were drawn at random from those tested, without regard to their results. Two or more numbers in one place are separate tests of the same structure; such repeats can differ widely.

Result for COc1ccc(CNC(=O)NCc2cc(C)oc2C)cc1 was Mtb cholesterol medium: 6.104%; Mtb glucose medium: 26.06%.
Result for O=S(=O)(NCC1COCCO1)c1ccc(C2CCCCC2)cc1 (stereo not shown) was Mtb cholesterol medium: 5.159%; Mtb glucose medium: -3.802%.
Result for CCNc1cc2c(nn1)CCN(C(=O)C1Cc3ccccc3O1)C2 (stereo not shown) was Mtb cholesterol medium: -1.114%; Mtb glucose medium: -8.588%.
Result for O=C(O)C(F)(F)F.[H][C@]12CCN(C(=O)c3cscn3)C[C@@]1([H])CN(Cc1cnn(C)c1)C2 was Mtb cholesterol medium: 1.37%; Mtb glucose medium: -16.99%.
Result for Cc1nc(CNC(=O)N(CCCO)C2CCc3ccccc32)oc1C (stereo not shown) was Mtb cholesterol medium: -9.941%; Mtb glucose medium: -19.81%.
Result for COc1ccc(NC(=O)C2CC2)cc1OCc1cccnc1 was Mtb cholesterol medium: -18.94%; Mtb glucose medium: 5.794%.
Result for O=C(CN(CC1CCC1)CC(F)(F)F)N1CCCC1 was Mtb cholesterol medium: 16.26%; Mtb glucose medium: 44.47%.
Result for O=C(O)C(F)(F)F.O=C(O)C(F)(F)F.[H][C@@]12OCCC[C@]1([H])N(Cc1cnn(C)c1)C[C@@H]2N1CCOCC1 was Mtb cholesterol medium: 8.516%; Mtb glucose medium: 6.102% and -5.084%.
Result for Cc1csc(N2CCCN(c3cc(C)nc(C)c3C#N)CC2)n1 was Mtb cholesterol medium: 29.08%; Mtb glucose medium: 55.15%.
Result for Cc1ccc(C2CCCN2S(=O)(=O)N(C)Cc2cnn(C)c2)o1 (stereo not shown) was Mtb cholesterol medium: -5.493% and 10.69%; Mtb glucose medium: 7.9% and 7.365%.
Result for Cc1cccc2c1cnn2CCC(=O)NCC(=O)N(C)C was Mtb cholesterol medium: -8.311%; Mtb glucose medium: -6.985%.
Result for C=C(C)COc1ccccc1C(=O)NCc1nc(C)cc(=O)[nH]1 was Mtb cholesterol medium: -6.346%; Mtb glucose medium: -9.105%.
Result for CCc1n[nH]c(C2CN(C(=O)c3ccc(NC4CC4)nc3)CCO2)n1 (stereo not shown) was Mtb cholesterol medium: -16.18%; Mtb glucose medium: -8.237%.
Result for Cc1cccc2c1nc(COCC(=O)O)n2-c1ccsc1 was Mtb cholesterol medium: -6.975% and -13.78%; Mtb glucose medium: 2.27%.
Result for Cc1cnn(CC2CCCN2Cc2noc(-c3ccccc3)n2)c1 (stereo not shown) was Mtb cholesterol medium: -31.68%; Mtb glucose medium: 0.1047%.
Result for Cc1nn(C)c(C)c1C1CCCN1Cc1nnc(C2CC2)n1C (stereo not shown) was Mtb cholesterol medium: -15.05%; Mtb glucose medium: -14.79%.
Result for CN(CCC#N)C(=O)CN1CCC(c2cc3ccccc3[nH]2)CC1 was Mtb cholesterol medium: -16.93%; Mtb glucose medium: -1.798% and -52.19%.
Result for Cc1ccc(S(=O)(=O)Nc2c(C)nn(C)c2C)cc1C was Mtb cholesterol medium: -10.15%; Mtb glucose medium: -13.47%.
Result for Cc1cnn(C2CN(CC(=O)NCCc3c[nH]c4ccccc34)C2)c1 was Mtb cholesterol medium: 7.327%; Mtb glucose medium: 14.3%.
Result for Cc1nn(C)c(C)c1CC(C)NC(=O)NCc1ccn(C(C)C)n1 (stereo not shown) was Mtb cholesterol medium: -9.34%; Mtb glucose medium: -9.728% and -0.1834%.
Result for COc1ccc(C(C)N(C)Cc2c(C(C)C)[nH]c3ncccc23)cc1 (stereo not shown) was Mtb cholesterol medium: -35.51% and -0.2845%; Mtb glucose medium: 2.347%.
Result for COCC(=O)N1CC(c2csc(NC(C)=O)n2)C1 was Mtb cholesterol medium: -1.865%; Mtb glucose medium: -0.5609%.
Result for CN(C)S(=O)(=O)c1ccc(OCCNCCn2cccn2)cc1 was Mtb cholesterol medium: -19.97%; Mtb glucose medium: -49.47%.
Result for Cc1nn(C)c(C)c1C1CCCN1C(=O)c1ccc(C(N)=O)s1 (stereo not shown) was Mtb cholesterol medium: -30.24%; Mtb glucose medium: -43.88%.
Result for Cl.O=C(C1CC1)N1CCc2ccccc2C12CCNCC2 was Mtb cholesterol medium: 5.447%; Mtb glucose medium: 21.94%.
Result for CCCC(C)Sc1nnnn1C1CCOCC1 (stereo not shown) was Mtb cholesterol medium: 11.4%; Mtb glucose medium: -15.81%.
Result for [H][C@]12CC[C@]([H])(CN(S(=O)(=O)N(C)C)C1)N(C(=O)c1cc(C(C)C)oc1C)C2 was Mtb cholesterol medium: -5.532% and -27%; Mtb glucose medium: -2.864% and -59.45%.
Result for Cc1noc(C)c1CN1CCCCC1c1nc(-c2ccccc2)no1 (stereo not shown) was Mtb cholesterol medium: 1.377%; Mtb glucose medium: 10.77%.
Result for [H][C@@]12CN(c3ccccn3)C[C@]1([H])N(CCCc1ccc(F)cc1)C(=O)O2 was Mtb cholesterol medium: 8.346%; Mtb glucose medium: 8.9%.
Result for Cc1nccnc1-n1c(COCC(=O)O)nc2c(C)cccc21 was Mtb cholesterol medium: 3.717% and -5.988%; Mtb glucose medium: 4.917%.
Result for O=C1CSC(c2ccc3c(c2)OCO3)c2cn[nH]c2N1 (stereo not shown) was Mtb cholesterol medium: -12.48%; Mtb glucose medium: -6.552%.
Result for CCc1ccccc1NC(=O)C1CN(C(C)=O)C1 was Mtb cholesterol medium: -18.18%; Mtb glucose medium: -20.75%.
Result for C[C@@H]1CN(Cc2cccc(F)c2)C[C@]12CCN(Cc1cccnc1)C2=O.O=C(O)C(F)(F)F.O=C(O)C(F)(F)F was Mtb cholesterol medium: -7.855% and -8.643%; Mtb glucose medium: -23.59%.
Result for [H][C@@]12CS(=O)(=O)C[C@]1([H])N(C(=O)c1cc(F)cc(Cl)c1)CCN2CCO was Mtb cholesterol medium: -13.16%; Mtb glucose medium: -7.636%.
Result for CN1CCOC(CNCc2ccc(OCc3ccccn3)cc2)C1 (stereo not shown) was Mtb cholesterol medium: 1.257%; Mtb glucose medium: 2.044% and -7.935%.
Result for CC1CN(S(=O)(=O)c2ccc(F)cc2F)c2cccnc2O1 (stereo not shown) was Mtb cholesterol medium: 0.2547%; Mtb glucose medium: 6.236% and 15.11%.
Result for c1ccc(Cn2cc(CNCC3CNc4ccnn4C3)cn2)cc1 (stereo not shown) was Mtb cholesterol medium: -27.44%; Mtb glucose medium: -31.71%.

Some entries from above, unchanged:

Result for Cc1csc(N2CCCN(c3cc(C)nc(C)c3C#N)CC2)n1 was Mtb cholesterol medium: 29.08%; Mtb glucose medium: 55.15%.
Result for Cc1nn(C)c(C)c1CC(C)NC(=O)NCc1ccn(C(C)C)n1 (stereo not shown) was Mtb cholesterol medium: -9.34%; Mtb glucose medium: -9.728% and -0.1834%.
Result for COc1ccc(CNC(=O)NCc2cc(C)oc2C)cc1 was Mtb cholesterol medium: 6.104%; Mtb glucose medium: 26.06%.
Result for CN1CCOC(CNCc2ccc(OCc3ccccn3)cc2)C1 (stereo not shown) was Mtb cholesterol medium: 1.257%; Mtb glucose medium: 2.044% and -7.935%.
Result for Cc1cccc2c1cnn2CCC(=O)NCC(=O)N(C)C was Mtb cholesterol medium: -8.311%; Mtb glucose medium: -6.985%.

From ChEMBL document CHEMBL3988442, “University of Dundee, Small-Polar-MMV Screening Library” (2021).